For at least one entry, the source does not settle the construct or the ends of the probe. At least one result comes from cells or an extract, where the contact may be indirect. For some assays here: Negatives hold for the conditions tested.
Tests used:
[1] = tested on: NF-kappaB (nuclear extract of H9c2 cells, AngII-, H2O2- or TNF-alpha-treated) (Rattus norvegicus); experiment: competition with a labelled probe; conditions: unlabeled mutant probe did not inhibit AngII-induced binding; protein in an extract; variant of scn5a promoter NF-kappaB probe
[2] = tested on: NF-kappaB (nuclear extract of H9c2 cells, AngII-, H2O2- or TNF-alpha-treated) (Rattus norvegicus); experiment: EMSA; conditions: 30 ug nuclear extract, on ice; binding induced by AngII or H2O2, blocked by CAPE, competed by 200-fold unlabeled probe; protein in an extract; label: biotin 3' end (biotin-N4-CTP)

Sequence | binding result [1] | binding result [2]
GGTGCTGCACTCAGGCCATCCCTATGAGATCCTC (double strand) [scn5a promoter NF-kappaB mutant probe] | no binding | 
GGTGCTGCACTCAGGGGATCCCTATGAGATCCTC (double strand) [scn5a promoter NF-kappaB probe] |  | binds
